# The other results are listed elsewhere or left out.
# Tests used:
# Experiment in all cases: glycan array binding signal (z-score within array); higher = stronger binding
# Details in all cases: glycan notation: IUPAC condensed, linker removed
# [1] = target: Neu5Ac(a2-3)Gal(b1-4)[Fuc(a1-3)]GlcNAc
# How it was run: (§1)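 Columns mapping to the same glycan were averaged after glycan names were converted to IUPAC-condensed notation. The data come from 3228 arrays in the Consortium for Functional Glycomics database, limited to those with an available protein sequence. Binding is reported as a within-array Z-score averaged across arrays of one protein sequence and across linkers.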
# [2] = target: Neu5Ac(a2-3)Gal(b1-4)[Fuc(a1-3)]GlcNAc(b1-3)Gal
# How it was run: as §1
# [3] = target: Neu5Ac(a2-3)Gal(b1-4)[Fuc(a1-3)]GlcNAc(b1-3)Gal(b1-4)GlcNAc
# How it was run: as §1
# [4] = target: Neu5Ac(a2-3)Gal(b1-4)[Fuc(a1-3)]GlcNAc(b1-3)Gal(b1-4)[Fuc(a1-3)]GlcNAc(b1-3)Gal(b1-4)[Fuc(a1-3)]GlcNAc
# How it was run: as §1
# [5] = target: Neu5Ac(a2-3)Gal(b1-4)[Fuc(a1-3)]GlcNAc6S
# How it was run: as §1
# [6] = target: Neu5Ac(a2-3)Gal6S(b1-4)GlcNAc
# How it was run: as §1
# [7] = target: Neu5Ac(a2-3)Gal6S(b1-4)[Fuc(a1-3)]GlcNAc
# How it was run: as §1
# Neu5Ac(a2-3)GalNAc = target: Neu5Ac(a2-3)GalNAc
# How it was run: as §1
# [8] = target: Neu5Ac(a2-3)GalNAc(b1-4)GlcNAc
# How it was run: as §1
# [9] = target: Neu5Ac(a2-3)[GalNAc(b1-4)]Gal(b1-4)Glc
# How it was run: as §1
# [10] = target: Neu5Ac(a2-3)[GalNAc(b1-4)]Gal(b1-4)GlcNAc
# How it was run: as §1
# [11] = target: Neu5Ac(a2-3)[Neu5Ac(a2-6)]GalNAc
# How it was run: as §1
# Neu5Ac(a2-6)Gal = target: Neu5Ac(a2-6)Gal
# How it was run: as §1
# Neu5Ac(a2-6)Gal(b1-4)Glc = target: Neu5Ac(a2-6)Gal(b1-4)Glc
# How it was run: as §1
# [12] = target: Neu5Ac(a2-6)Gal(b1-4)GlcNAc
# How it was run: as §1
# [13] = target: Neu5Ac(a2-6)Gal(b1-4)GlcNAc(b1-2)Man(a1-3)[Neu5Ac(a2-6)Gal(b1-4)GlcNAc(b1-2)Man(a1-6)]Man(b1-4)GlcNAc(b1-4)GlcNAc
# How it was run: as §1
# [14] = target: Neu5Ac(a2-6)Gal(b1-4)GlcNAc(b1-3)Gal(b1-4)GlcNAc
# How it was run: as §1
# [15] = target: Neu5Ac(a2-6)Gal(b1-4)GlcNAc(b1-3)Gal(b1-4)[Fuc(a1-3)]GlcNAc(b1-3)Gal(b1-4)[Fuc(a1-3)]GlcNAc
# How it was run: as §1
# [16] = target: Neu5Ac(a2-6)Gal(b1-4)GlcNAc6S
# How it was run: as §1
# Neu5Ac(a2-6)GalNAc = target: Neu5Ac(a2-6)GalNAc
# How it was run: as §1
# [17] = target: Neu5Ac(a2-6)GalNAc(b1-4)GlcNAc
# How it was run: as §1
# Neu5Ac(a2-8)Neu5Ac = target: Neu5Ac(a2-8)Neu5Ac
# How it was run: as §1
# [18] = target: Neu5Ac(a2-8)Neu5Ac(a2-3)Gal(b1-4)Glc
# How it was run: as §1
# [19] = target: Neu5Ac(a2-8)Neu5Ac(a2-3)[GalNAc(b1-4)]Gal(b1-4)Glc
# How it was run: as §1
# [20] = target: Neu5Ac(a2-8)Neu5Ac(a2-8)Neu5Ac
# How it was run: as §1
# [21] = target: Neu5Ac(a2-8)Neu5Ac(a2-8)Neu5Ac(a2-3)Gal(b1-4)Glc
# How it was run: as §1
# [22] = target: Neu5Ac(a2-8)Neu5Ac(a2-8)Neu5Ac(a2-3)[GalNAc(b1-4)]Gal(b1-4)Glc
# How it was run: as §1
# [23] = target: Neu5Ac(a2-8)Neu5Ac(a2-8)Neu5Ac(a2-8)Neu5Ac(a2-3)[GalNAc(b1-4)]Gal(b1-4)Glc
# How it was run: as §1
# [24] = target: Neu5Ac(b2-6)Gal(b1-4)GlcNAc
# How it was run: as §1
# Neu5Ac(b2-6)GalNAc = target: Neu5Ac(b2-6)GalNAc
# How it was run: as §1
# [25] = target: Neu5Ac9Ac(a2-6)Gal(b1-4)GlcNAc
# How it was run: as §1
# [26] = target: Neu5Gc(a2-3)Gal(b1-3)GlcNAc
# How it was run: as §1
# [27] = target: Neu5Gc(a2-3)Gal(b1-3)[Fuc(a1-4)]GlcNAc
# How it was run: as §1
# Neu5Gc(a2-3)Gal(b1-4)Glc = target: Neu5Gc(a2-3)Gal(b1-4)Glc
# How it was run: as §1
# [28] = target: Neu5Gc(a2-3)Gal(b1-4)GlcNAc
# How it was run: as §1
# [29] = target: Neu5Gc(a2-3)Gal(b1-4)[Fuc(a1-3)]GlcNAc
# How it was run: as §1
# [30] = target: Neu5Gc(a2-6)Gal(b1-4)GlcNAc
# How it was run: as §1
# Neu5Gc(a2-6)GalNAc = target: Neu5Gc(a2-6)GalNAc
# How it was run: as §1
binder,measurement,setting,value
"M6PR (Bos taurus), P11456 (protein) MMSPLHSSWRTGLLLLLLFSVAVRESWQTEEKTCDLVGEKGKESEKELALLKRLTPLFNKSFESTVGQSPDMYSYVFRVCREAGNHSSGAGLVQINKSNGKETVVGRFNETQIFNGSNWIMLIYKGGDEYDNHCGREQRRAVVMISCNRHTLADNFN",glycan array binding signal (z-score),[1],-0.249
same,glycan array binding signal (z-score),[2],-0.645
same,glycan array binding signal (z-score),[3],0.517
same,glycan array binding signal (z-score),[4],-0.345
same,glycan array binding signal (z-score),[5],0.045
same,glycan array binding signal (z-score),[6],-0.369
same,glycan array binding signal (z-score),[7],-0.101
same,glycan array binding signal (z-score),Neu5Ac(a2-3)GalNAc,-0.424
same,glycan array binding signal (z-score),[8],-0.155
same,glycan array binding signal (z-score),[9],-0.417
same,glycan array binding signal (z-score),[10],-0.468
same,glycan array binding signal (z-score),[11],-0.271
same,glycan array binding signal (z-score),Neu5Ac(a2-6)Gal,-0.915
same,glycan array binding signal (z-score),Neu5Ac(a2-6)Gal(b1-4)Glc,-0.5
same,glycan array binding signal (z-score),[12],-0.424
same,glycan array binding signal (z-score),[13],-0.279
same,glycan array binding signal (z-score),[14],0.039
same,glycan array binding signal (z-score),[15],-0.471
same,glycan array binding signal (z-score),[16],-0.341
same,glycan array binding signal (z-score),Neu5Ac(a2-6)GalNAc,-1.11
same,glycan array binding signal (z-score),[17],0.219
same,glycan array binding signal (z-score),Neu5Ac(a2-8)Neu5Ac,-0.254
same,glycan array binding signal (z-score),[18],-0.385
same,glycan array binding signal (z-score),[19],-0.465
same,glycan array binding signal (z-score),[20],-0.663
same,glycan array binding signal (z-score),[21],-0.227
same,glycan array binding signal (z-score),[22],0.911
same,glycan array binding signal (z-score),[23],0.98
same,glycan array binding signal (z-score),[24],-0.606
same,glycan array binding signal (z-score),Neu5Ac(b2-6)GalNAc,-0.432
same,glycan array binding signal (z-score),[25],-0.102
same,glycan array binding signal (z-score),[26],0.191
same,glycan array binding signal (z-score),[27],-0.343
same,glycan array binding signal (z-score),Neu5Gc(a2-3)Gal(b1-4)Glc,-0.187
same,glycan array binding signal (z-score),[28],-0.328
same,glycan array binding signal (z-score),[29],-0.427
same,glycan array binding signal (z-score),[30],-0.387
same,glycan array binding signal (z-score),Neu5Gc(a2-6)GalNAc,1.03

# In a second layout: entries from further up
binder | measurement | setting | value
M6PR (Bos taurus), P11456 (protein) MMSPLHSSWRTGLLLLLLFSVAVRESWQTEEKTCDLVGEKGKESEKELALLKRLTPLFNKSFESTVGQSPDMYSYVFRVCREAGNHSSGAGLVQINKSNGKETVVGRFNETQIFNGSNWIMLIYKGGDEYDNHCGREQRRAVVMISCNRHTLADNFN | glycan array binding signal (z-score) | [16] | -0.341
same | glycan array binding signal (z-score) | Neu5Ac(a2-6)GalNAc | -1.11
same | glycan array binding signal (z-score) | [17] | 0.219

# Source: the supplement of paper PMC8728848
